Measured values reported in US20190192622A1, “Use of Antisecretory Factor (AF) in Glioblastoma Treatment” (LANTMÄNNEN AS-FAKTOR AB, priority 2012, published 2019).
Not every detail of the peptide structures is certain; ends, links or a residue may be inferred. Where a SMILES comes first, the peptide text is derived from it.

System: RG2, clone N32 glioblastoma in the right brain hemisphere
Assay: Intracranial pressure in rats with implanted RG2-N32 glioblastoma after nasal peptide
Assay type: in vivo, Fisher 344 rats
From the text: Adult male Fisher 344 rats were purchased from Charles River, Germany. The body weight at the time for the experiments was 230-250 g. The animals had water and pelleted feed ad libitum. Permission to the experiments was granted by the Regional Animal Experiments Ethical Committee, and national and EU rules were followed.
Cultured cells of the established glioma cell line RG2, clone N32, were stereotactically deposited in the right striatum of the brain of adult Fisher 344 rats (A. T. Aas, A Brun, C. Blennow, S. Strömblad and L. G. Salford (1995). The RG2 glioma model. J. Neuro-Oncology 23, 175-183; R. F. Barth and B. Kauer ([…]). Rat brain tumor models in experimental neuro-oncology: the C6, 9L, T9, RG2, F98, BT4C, RT-2 and CNS-1 gliomas. (J Neuro-Oncology 94, 299-312). After 18-22 days, a tumor, fulfilling established criteria for glioblastoma, was demonstrable in the right hemisphere, invading adjacent brain parenchyma (FIGS. 1, 2). […] FIG. 4 is showing the implantation of pressure sensors (Samba 3200; Samba Sensors A B, V. Frölunda, Sweden), one in each hemisphere. The intracranial pressure was measured to be in the range of 25-50 mm Hg (FIG. 4), that means strikingly elevated as compared to normally 5.3±2.1 mm Hg (H.-A. Hansson, M. Al-Olama, E. Jennische, K. Gatzinsky and S. Lange (2012). The peptide AF-16 and the AF protein counteract intracranial hypertension. Acta Neurochir. Suppl. 114, 377-382). Eventually, the intracranial pressure exceed 50-60 mm Hg, resulting in herniation of the brain, dislocations and impaired blood circulation, and death (FIG. 5).
The intracranial pressure was raised both in the tumor affected right side and in the contralateral left side, and the pressure dropped to the same extent in either brain hemisphere. Concomitantly, any demonstrable neurological impairment resolved.
Cultured cells of the established glioma cell line RG2, clone N32, were stereotactically deposited in the right striatum of the brain of adult Fisher 344 rats as described in
After 18-22 days a tumor, fulfilling established criteria for glioblastoma, was demonstrable in the right hemisphere, invading adjacent brain parenchyma.
A single dose of the peptide AF-6 (1-2 mg/kg body weight, dissolved in water) was instilled in the nose of a Fisher rat with an experimental glioblastoma tumor of the RG2-N32 origin at day 21 after implantation. About 15 min later the intracranial pressure started to dropped from 25-27 mm Hg to 17.7 mm Hg (FIG. 7).

Q: C[C@@H](O)[C@H](NC(=O)[C@H](CCCCN)NC(=O)[C@H](CO)NC(=O)[C@H](Cc1c[nH]cn1)NC(=O)[C@@H](N)CS)C(=O)N[C@@H](CCCNC(=N)N)C(=O)O [AF-6, CHSKTR] (H-CHSKTR-OH) was tested. Which “effect on raised intracranial pressure (summary statement)” value (animals with experimentally induced glioblastoma, tumor and contralateral hemisphere) did it give?
A: could as well be demonstrated to be achieved

Q: What about the “start of intracranial pressure reduction after nasal instillation” value (nasal AF-6 1 mg/kg bw) of the same compound?
A: about 15 min

Q: And the intracranial pressure attained (nasal AF-6 1 mg/kg bw, after almost half an hour)?
A: 17.7 mm Hg

Q: And the “start of intracranial pressure drop after instillation” value (single nasal dose 1-2 mg/kg body weight, day 21)?
A: About 15 min
